In paper PMC4673280:
These are yes or no findings as the source states them, for the method shown. Binding seen in cells or lysates may run through a third protein. Some binding calls cover weakened binding; strength is not graded here.

By UniProt entry, the sequences of proteins in these tests, tags left out.
UniProt Q00987: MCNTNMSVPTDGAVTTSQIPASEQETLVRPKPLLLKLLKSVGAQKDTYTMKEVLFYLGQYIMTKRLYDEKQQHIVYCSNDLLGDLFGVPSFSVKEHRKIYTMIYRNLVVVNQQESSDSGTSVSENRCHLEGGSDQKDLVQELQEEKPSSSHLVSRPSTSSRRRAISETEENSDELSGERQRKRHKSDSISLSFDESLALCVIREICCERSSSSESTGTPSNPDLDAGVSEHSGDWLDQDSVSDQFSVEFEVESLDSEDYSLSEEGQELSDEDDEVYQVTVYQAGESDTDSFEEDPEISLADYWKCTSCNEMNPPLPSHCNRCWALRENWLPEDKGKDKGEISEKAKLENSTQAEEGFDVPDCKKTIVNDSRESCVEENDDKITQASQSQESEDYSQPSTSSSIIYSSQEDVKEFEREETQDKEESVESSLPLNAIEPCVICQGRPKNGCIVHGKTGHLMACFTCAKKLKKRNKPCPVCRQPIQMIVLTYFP

Target: MDM2 (endogenous, HEK293 cells) (human (endogenous in HEK293)) (UniProt Q00987)
Assay: co-IP; endogenous proteins, extracts of HEK293 cells; IP with anti-MDM2 (SMP14) or anti-p73 (ER-15), control mouse IgG; lysis buffer 50 mM Tris-HCl pH 8.0, 5 mM EDTA, 150 mM NaCl, 0.5% NP-40; Western blot

binding: binds
B1: p73 (endogenous, HEK293 cells) (protein, UniProt O15350 1-636)
chain: MAQSTATSPDGGTTFEHLWSSLEPDSTYFDLPQSSRGNNEVVGGTDSSMDVFHLEGMTTSVMAQFNLLSSTMDQMSSRAASASPYTPEHAASVPTHSPYAQPSSTFDTMSPAPVIPSNTDYPGPHHFEVTFQQSSTAKSATWTYSPLLKKLYCQIAKTCPIQIKVSTPPPPGTAIRAMPVYKKAEHVTDVVKRCPNHELGRDFNEGQSAPASHLIRVEGNNLSQYVDDPVTGRQSVVVPYEPPQVGTEFTTILYNFMCNSSCVGGMNRRPILIIITLEMRDGQVLGRRSFEGRICACPGRDRKADEDHYREQQALNESSAKNGAASKRAFKQSPPAVPALGAGVKKRRHGDEDTYYLQVRGRENFEILMKLKESLELMELVPQPLVDSYRQQQQLLQRPSHLQPPSYGPVLSPMNKVHGGMNKLPSVNQLVGQPPPHSSAATPNLGPVGPGMLNNHGHAVPANGEMSSSHSAQSMVSGSHCTPPPPYHADPSLVSFLTGLGCPNCIEYFTSQGLQSIYHLQNLTIEDLGALKIPEQYRMTIWRGLQDLKQGHDYSTAQQLLRSSNAATISIGGSGELQRQRVMEAVHFRVRHTITIPNRGGPGGGPDEWADFGFDLPDCKARKQPIKEEFTEAEIH
